Test results published in publication PMC12709188.
These are yes or no findings as the source states them, for the method shown. In cells and extracts the contact can be indirect. Some results given as binding are weak or reduced against the parent protein; the word gives no strength. For part of these data: Tags and fused reporters may be left off the sequences shown. Values belong to the binder of their own block, whether it stands above or below them.

Columns and labels:
Experiment in all cases: co-IP; FLAG pull-down: M. smegmatis lysates (2–4 mg protein; exponential and stationary phase; for RNAP-FLAG also after crsL knock-down) with M2 anti-FLAG resin 16–18 h at 4°C in 20 mM Tris–HCl pH 7.9, 150 mM KCl, 1 mM MgCl2; SDS–PAGE, silver stain, bands identified by MALDI-FTICR MS and/or western blot
[1] = biological target: T1, CarD–FLAG (additional copy of FLAG-tagged CarD under an ATc-inducible promoter) (M. smegmatis) (UniProt A0R561)
T1 sequence: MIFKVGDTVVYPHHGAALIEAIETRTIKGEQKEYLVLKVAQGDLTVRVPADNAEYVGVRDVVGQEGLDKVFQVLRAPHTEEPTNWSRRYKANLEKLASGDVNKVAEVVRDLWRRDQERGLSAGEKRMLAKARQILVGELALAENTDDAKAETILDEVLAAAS

[2] = biological target: T2, CarD–gFLAG (FLAG-tag sequence inserted into the M. smegmatis genome at the carD locus) (M. smegmatis) (UniProt A0R561)
T2 sequence: T1 sequence

[3] = biological target: RNAP with endogenously FLAG-tagged β′ subunit (M. smegmatis (endogenous in M. smegmatis mc2 155) | M. smegmatis) (UniProt A0QSL8+P60281+A0QS66+A0QWT1)

- binding [1]: binds
B1: RbpA (protein, UniProt A0QZ11 1-114)
chain: MADRVLRGSRLGAVSYETDRNHDLAPRQVARYRTDNGEEFDVPFADDAEIPGTWLCRNGLEGTLIEGDVPEPKKVKPPRTHWDMLLERRSVEELEELLKERLDLIKAKRRGTGS

- binding [2]: binds
B2: alternative σ factor σ^B (protein, UniProt A0QVZ5 1-319)
chain: MANATTSRVDTDLDAQSPAADLVRVYLNGIGKTALLNAADEVELAKRIEAGLYAQHLLDTKKRLGEARKRDLQAVVRDGEAARRHLLEANLRLVVSLAKRYTGRGMPLLDLIQEGNLGLIRAMEKFDYTKGFKFSTYATWWIRQAITRGMADQSRTIRLPVHLVEQVNKLARIKREMHQNLGREATDEELAEESGIPVEKINDLLEHSRDPVSLDMPVGTDEEAPLGDFIEDSEAMSAENAVISELLHTDIRYVLATLDEREQQVIRLRFGLDDGQPRTLDQIGKLFGLSRERVRQIEREVMAKLRNGERADRLRSYAS

- binding [3]: binds
B3: CarD (protein, UniProt A0R561 1-162)
chain: T1 sequence
